Results reported in PMC10468069.
No constants are given. Whether binding was seen depends on the method and setting. In cells and extracts the contact can be indirect. Some entries that bind do so weakly or less than the wild type. Each block holds one substance with its values, some of them ahead of it.

Sequences of proteins named here, by UniProt entry; tags and fusion partners are left off.
UniProt P53894: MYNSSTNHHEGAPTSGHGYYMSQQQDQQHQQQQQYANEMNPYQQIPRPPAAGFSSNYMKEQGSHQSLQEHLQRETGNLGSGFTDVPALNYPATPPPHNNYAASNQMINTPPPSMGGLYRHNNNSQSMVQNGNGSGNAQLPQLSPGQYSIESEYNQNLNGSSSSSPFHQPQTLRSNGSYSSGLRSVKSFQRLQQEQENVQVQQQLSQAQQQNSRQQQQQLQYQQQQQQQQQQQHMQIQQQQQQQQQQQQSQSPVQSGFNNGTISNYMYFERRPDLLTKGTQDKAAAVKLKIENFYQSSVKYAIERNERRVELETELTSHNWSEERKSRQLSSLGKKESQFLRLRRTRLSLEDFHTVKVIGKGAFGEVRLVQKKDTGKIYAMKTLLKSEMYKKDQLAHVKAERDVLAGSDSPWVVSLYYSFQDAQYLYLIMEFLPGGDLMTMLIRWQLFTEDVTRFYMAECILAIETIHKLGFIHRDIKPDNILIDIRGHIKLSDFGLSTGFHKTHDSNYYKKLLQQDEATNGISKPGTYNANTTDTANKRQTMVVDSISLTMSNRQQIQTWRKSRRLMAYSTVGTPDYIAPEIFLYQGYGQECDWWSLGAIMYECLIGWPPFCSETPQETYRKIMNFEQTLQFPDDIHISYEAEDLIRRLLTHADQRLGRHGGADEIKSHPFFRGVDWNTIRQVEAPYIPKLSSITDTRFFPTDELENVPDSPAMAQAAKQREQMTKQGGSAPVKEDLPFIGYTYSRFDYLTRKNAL
UniProt P33332: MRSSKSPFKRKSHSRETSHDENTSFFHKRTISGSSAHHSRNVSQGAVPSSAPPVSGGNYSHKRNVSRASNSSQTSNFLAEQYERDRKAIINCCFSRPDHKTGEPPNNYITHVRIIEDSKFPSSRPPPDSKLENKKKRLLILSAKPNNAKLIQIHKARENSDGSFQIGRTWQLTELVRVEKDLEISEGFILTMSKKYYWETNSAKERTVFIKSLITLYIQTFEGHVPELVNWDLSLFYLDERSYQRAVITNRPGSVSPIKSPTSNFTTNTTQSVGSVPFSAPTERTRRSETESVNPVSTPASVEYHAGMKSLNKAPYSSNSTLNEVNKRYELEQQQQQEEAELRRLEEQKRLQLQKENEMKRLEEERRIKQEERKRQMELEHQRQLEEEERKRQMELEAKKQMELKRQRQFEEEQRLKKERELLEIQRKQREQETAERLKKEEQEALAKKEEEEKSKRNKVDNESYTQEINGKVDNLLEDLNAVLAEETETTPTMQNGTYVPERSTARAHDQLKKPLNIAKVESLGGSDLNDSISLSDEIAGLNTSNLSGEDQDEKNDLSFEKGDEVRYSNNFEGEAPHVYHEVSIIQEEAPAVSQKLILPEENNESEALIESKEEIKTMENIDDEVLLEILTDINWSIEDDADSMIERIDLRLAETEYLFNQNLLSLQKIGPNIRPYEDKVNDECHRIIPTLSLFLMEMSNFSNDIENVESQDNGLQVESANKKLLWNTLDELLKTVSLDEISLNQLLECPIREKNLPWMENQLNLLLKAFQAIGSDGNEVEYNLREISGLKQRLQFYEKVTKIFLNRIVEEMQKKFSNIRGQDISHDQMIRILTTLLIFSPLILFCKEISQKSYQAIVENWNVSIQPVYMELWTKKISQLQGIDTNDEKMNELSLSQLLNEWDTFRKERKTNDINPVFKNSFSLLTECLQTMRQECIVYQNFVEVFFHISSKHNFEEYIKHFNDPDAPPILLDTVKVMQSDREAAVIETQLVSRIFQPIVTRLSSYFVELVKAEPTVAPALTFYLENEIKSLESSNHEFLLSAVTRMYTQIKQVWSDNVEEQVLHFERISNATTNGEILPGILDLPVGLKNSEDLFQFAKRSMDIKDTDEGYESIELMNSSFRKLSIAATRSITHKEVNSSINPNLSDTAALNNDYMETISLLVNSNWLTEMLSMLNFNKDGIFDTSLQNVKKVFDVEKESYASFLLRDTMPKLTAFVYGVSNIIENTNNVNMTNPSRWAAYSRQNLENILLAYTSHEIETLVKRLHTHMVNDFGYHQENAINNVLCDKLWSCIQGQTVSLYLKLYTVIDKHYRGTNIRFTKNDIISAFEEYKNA
UniProt P35169: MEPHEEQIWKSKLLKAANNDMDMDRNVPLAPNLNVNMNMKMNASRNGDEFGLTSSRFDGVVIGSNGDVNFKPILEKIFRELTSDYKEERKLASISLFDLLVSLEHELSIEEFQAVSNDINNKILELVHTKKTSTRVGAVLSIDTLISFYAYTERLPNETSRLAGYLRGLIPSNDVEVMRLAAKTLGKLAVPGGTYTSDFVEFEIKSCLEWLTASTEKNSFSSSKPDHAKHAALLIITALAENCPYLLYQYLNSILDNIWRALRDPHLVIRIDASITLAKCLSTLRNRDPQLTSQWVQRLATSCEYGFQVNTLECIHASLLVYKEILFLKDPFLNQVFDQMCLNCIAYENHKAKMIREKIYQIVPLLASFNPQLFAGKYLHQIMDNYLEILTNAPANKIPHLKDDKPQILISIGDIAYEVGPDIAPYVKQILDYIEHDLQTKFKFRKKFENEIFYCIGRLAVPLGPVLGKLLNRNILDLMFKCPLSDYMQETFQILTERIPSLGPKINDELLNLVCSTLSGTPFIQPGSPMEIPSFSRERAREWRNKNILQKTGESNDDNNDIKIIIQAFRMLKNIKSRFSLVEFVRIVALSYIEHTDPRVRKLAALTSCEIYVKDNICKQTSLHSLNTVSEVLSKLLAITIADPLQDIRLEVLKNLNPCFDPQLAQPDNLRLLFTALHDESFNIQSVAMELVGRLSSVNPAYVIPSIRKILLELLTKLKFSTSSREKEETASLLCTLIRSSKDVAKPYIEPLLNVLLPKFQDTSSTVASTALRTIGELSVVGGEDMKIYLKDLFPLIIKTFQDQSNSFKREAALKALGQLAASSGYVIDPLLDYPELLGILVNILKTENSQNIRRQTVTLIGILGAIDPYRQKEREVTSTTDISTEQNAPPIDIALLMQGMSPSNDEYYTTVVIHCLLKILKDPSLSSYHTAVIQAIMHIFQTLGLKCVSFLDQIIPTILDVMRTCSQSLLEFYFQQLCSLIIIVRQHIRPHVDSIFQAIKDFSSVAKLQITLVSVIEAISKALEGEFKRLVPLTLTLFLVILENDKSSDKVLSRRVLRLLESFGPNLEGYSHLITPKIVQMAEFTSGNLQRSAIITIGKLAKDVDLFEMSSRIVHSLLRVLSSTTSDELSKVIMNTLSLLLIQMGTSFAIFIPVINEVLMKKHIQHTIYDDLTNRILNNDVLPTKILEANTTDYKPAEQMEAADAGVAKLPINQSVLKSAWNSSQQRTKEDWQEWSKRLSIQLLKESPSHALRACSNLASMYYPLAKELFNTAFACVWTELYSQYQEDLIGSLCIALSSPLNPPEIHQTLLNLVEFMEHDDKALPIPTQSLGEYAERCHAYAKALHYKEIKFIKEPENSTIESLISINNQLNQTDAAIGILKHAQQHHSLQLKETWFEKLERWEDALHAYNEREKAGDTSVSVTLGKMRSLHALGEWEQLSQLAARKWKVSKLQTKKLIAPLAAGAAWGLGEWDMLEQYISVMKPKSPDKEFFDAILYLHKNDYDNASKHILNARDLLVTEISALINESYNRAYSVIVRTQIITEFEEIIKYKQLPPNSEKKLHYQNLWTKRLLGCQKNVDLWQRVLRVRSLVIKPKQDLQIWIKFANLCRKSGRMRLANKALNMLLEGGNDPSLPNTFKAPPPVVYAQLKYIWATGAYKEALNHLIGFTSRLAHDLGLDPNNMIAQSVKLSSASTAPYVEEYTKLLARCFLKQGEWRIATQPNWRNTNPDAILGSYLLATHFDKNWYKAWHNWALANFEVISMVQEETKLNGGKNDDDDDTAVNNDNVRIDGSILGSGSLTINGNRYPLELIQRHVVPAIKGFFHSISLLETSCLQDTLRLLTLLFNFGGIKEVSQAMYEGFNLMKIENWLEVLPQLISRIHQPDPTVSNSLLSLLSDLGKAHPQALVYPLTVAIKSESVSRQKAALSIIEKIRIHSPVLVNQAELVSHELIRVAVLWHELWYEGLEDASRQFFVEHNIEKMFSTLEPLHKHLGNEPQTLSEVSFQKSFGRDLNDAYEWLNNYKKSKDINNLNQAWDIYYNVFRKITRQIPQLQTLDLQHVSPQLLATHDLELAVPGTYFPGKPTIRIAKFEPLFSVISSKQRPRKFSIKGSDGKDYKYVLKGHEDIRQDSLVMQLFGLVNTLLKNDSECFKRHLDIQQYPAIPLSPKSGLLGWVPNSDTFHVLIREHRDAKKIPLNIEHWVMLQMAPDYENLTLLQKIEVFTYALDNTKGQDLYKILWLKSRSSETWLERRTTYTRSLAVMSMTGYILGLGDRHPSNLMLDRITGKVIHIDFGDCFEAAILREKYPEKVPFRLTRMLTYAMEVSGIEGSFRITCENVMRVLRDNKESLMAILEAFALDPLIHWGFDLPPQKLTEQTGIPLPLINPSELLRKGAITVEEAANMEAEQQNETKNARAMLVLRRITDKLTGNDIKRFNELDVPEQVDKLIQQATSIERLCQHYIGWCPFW
UniProt P40357: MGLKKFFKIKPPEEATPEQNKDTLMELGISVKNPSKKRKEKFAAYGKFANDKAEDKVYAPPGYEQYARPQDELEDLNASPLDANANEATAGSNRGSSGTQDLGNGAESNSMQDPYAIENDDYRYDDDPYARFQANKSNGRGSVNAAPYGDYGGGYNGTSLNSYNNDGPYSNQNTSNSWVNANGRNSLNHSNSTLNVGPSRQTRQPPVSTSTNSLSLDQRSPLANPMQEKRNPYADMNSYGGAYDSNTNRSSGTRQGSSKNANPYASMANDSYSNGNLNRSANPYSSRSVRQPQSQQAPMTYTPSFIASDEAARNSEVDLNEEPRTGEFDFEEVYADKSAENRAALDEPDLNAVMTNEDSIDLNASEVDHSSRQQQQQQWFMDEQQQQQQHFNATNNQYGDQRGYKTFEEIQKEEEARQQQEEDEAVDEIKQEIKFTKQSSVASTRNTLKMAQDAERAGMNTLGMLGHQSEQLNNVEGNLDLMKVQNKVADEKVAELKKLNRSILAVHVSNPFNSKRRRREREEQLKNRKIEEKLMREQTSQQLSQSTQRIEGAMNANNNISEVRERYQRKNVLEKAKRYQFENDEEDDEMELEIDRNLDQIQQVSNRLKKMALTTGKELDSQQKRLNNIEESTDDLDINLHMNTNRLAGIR

Experiments:
[1] = molecular target: Cbk1-5FLAG (S. cerevisiae) (UniProt P53894); experiment: co-IP; Cbk1-5FLAG immunoprecipitated on FLAG-beads from extracts of cdc15-2 cells arrested in late anaphase at 37 °C, with or without rapamycin for 20 min; immunoblotting
Cbk1-TAP (S. cerevisiae) = Cbk1-TAP (S. cerevisiae) (UniProt P53894); experiment: co-IP; Cbk1-TAP immunoprecipitated on IgG beads from extracts of cdc15-2 cells arrested in late anaphase at 37 °C, with or without rapamycin for 20 min; immunoblotting
Sec3-TAP (S. cerevisiae) = Sec3-TAP (S. cerevisiae) (UniProt P33332); experiment: co-IP; Sec3-TAP immunoprecipitated from extracts of cdc15-2 cells arrested at 37 °C and released at 24 °C for 45 min, with or without rapamycin; immunoblotting with sera against Sso1 (also recognises Sso2) and Sec9

binding [1]: binds
Substance: HA3-Tor1 (from UniProt P35169 1-2470) (enzyme)

Substance: Sec3-5FLAG (from UniProt P33332 1-1336)
binding (Cbk1-TAP (S. cerevisiae)): binds

Substance: Sec9 (from UniProt P40357 1-651)
binding (Sec3-TAP (S. cerevisiae)): binds
